A short description of the data set: DPPH radical scavenging activity assay. The class given is biochemical. Particulars: 517 nm; for Absorbance Ai: sample + DPPH solution, 30 min; for Absorbance Aj: sample + toluene (no DPPH). An excerpt: 2,2-Diphenyl-1-picryl hydrazyl (DPPH) is an organic compound composed of a stable organic radical. In the DPPH molecule, due to the presence of multiple electron-withdrawing —NO2 and large π bonds of the benzene ring, nitrogen free radical is stabilized. Its methanol solution is purple and has a maximum absorption peak at 517 nm. After the addition of an antioxidant, DPPH captures an electron to be paired with the free electron, and the purple fades and turns into a yellow substance. The absorption at 517 nm disappears, and the degree of fading is quantitatively related to the number of electrons it captures. Based on this principle, a spectrophotometer is used to detect the change of the absorbance of the DPPH radical and the sample solution, and the ability of the sample to provide hydrogen atoms and scavenge free radicals can be measured.
Preparation of DPPH solution: measuring exact amount of 2,2-diphenyl-1-picryl hydrazyl (DPPH) and dissolving in toluene to prepare a 0.2 mmol/L DPPH solution, stored at 0° C. in dark.
Preparation of test solution: Vc (vitamin C, positive control), compound of formula (I) (sample), silibinin (control) and lipoic acid (control). The sample solution was subjected to gradient dilution with toluene, and three sets of controls were separately dissolved in a test tube with a certain amount of toluene to prepare the same concentration gradient as the sample.
Sample liquid absorbance measurement: Take 2 mL of sample solution (Table 2 Vc, B, C), add 2 mL of DPPH solution with concentration of 2×10^−4 mol/L, mix and react in the dark at room temperature for 30 min, adjust to zero with toluene, and measure at 517 nm. The absorbance Ai was simultaneously measured for the absorbance Aj of 2 mL of toluene mixed with 2 mL of the sample solution and the absorbance Ao of 2 mL of DPPH solution mixed with 2 mL of toluene (the experimental results are shown in Table 3).
clearance rate (%)=[1−(Ai−Aj)/Ao]*100% Clearance calculation: […]
(In general: DPPH is a stable violet radical that fades when it is reduced.)

As to `COc1cc(C2Oc3cc([C@H]4Oc5cc(O)cc(O)c5C(=O)[C@@H]4O)ccc3OC2COC(=O)CCCCC2CCSS2)ccc1O` (stereo partly drawn) [Compound of Formula (I), (3-(4-hydroxy-3-methoxyphenyl)-6-((2R,3R)-3,5,7-trihydroxy-4-oxochroman-2-yl)-2,3-dihydrobenzo[b][1,4]dioxin-2-yl)methyl 5-(1,2-dithiolan-3-yl)pentanoate], the “Absorbance Ai” value worked out at 0.736 (1.76 ppm); 0.682 (8.80 ppm); 0.598 (21.12 ppm); 0.509 (42.24 ppm); 0.300 (79.20 ppm); 0.226 (112.64 ppm). Further, the “Absorbance Ai” value (281.60 ppm) was determined as 0.203, the “Absorbance Ai” value (492.80 ppm) was determined as 0.155, the “Absorbance Ai” value (792.00 ppm) is 0.134 and the “Absorbance Ai” value (915.20 ppm) stood at 0.099. For the same compound, the “Absorbance Aj” value runs as follows: (1.76 ppm) 0.039; (8.80 ppm) 0.045; (21.12 ppm) 0.059; (42.24 ppm) 0.061; (79.20 ppm) 0.057; (112.64 ppm) 0.059. Besides, the “Absorbance Aj” value is recorded as 0.054 (281.60 ppm), 0.049 (492.80 ppm), 0.055 (792.00 ppm) and 0.048 (915.20 ppm).

As for `O=C(O)CCCCC1CCSS1` (stereo not shown) [C, Lipoic acid], the “Absorbance Ai” value (1.76 ppm) is 0.883; the “Absorbance Ai” value (8.80 ppm) was 0.969; the “Absorbance Ai” value (21.12 ppm) was 0.797; the “Absorbance Ai” value (42.24 ppm) was found to be 0.730; the “Absorbance Ai” value (79.20 ppm) amounted to 0.626; the “Absorbance Ai” value (112.64 ppm) is listed as 0.579. In addition, the “Absorbance Ai” value is recorded as 0.453 (281.60 ppm), 0.330 (492.80 ppm), 0.291 (792.00 ppm) and 0.267 (915.20 ppm). In addition, the “Absorbance Aj” value by setting is: (1.76 ppm) 0.053; (8.80 ppm) 0.045; (21.12 ppm) 0.048; (42.24 ppm) 0.045; (79.20 ppm) 0.057; (112.64 ppm) 0.056. For the same compound, the “Absorbance Aj” value reads like this: (281.60 ppm) 0.043; (492.80 ppm) 0.042; (792.00 ppm) 0.040; (915.20 ppm) 0.031.

For the origin of these results see patent US11306076B2, “Silibinin lipoic acid ester with hepatoprotective activity and a method of preparing the same” (XI'AN TAIKOMED PHARMACEUTICAL TECHNOLOGY CO., LTD., priority 2020, dated 2022).
